Reference: patent publication CN115232208A
No constants are given. Whether binding was seen depends on the method and setting. Some results given as binding are weak or reduced against the parent protein; the word gives no strength.

By UniProt entry, the sequences of proteins in these tests, tags left out. Residues count along the entry.
UniProt Q9Y275, residues 134-285: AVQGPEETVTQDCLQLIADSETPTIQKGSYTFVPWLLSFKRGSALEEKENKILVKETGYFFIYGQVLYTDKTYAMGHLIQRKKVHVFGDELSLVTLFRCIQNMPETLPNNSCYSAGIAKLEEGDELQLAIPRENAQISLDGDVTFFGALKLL

Target: 重组人BLyS蛋白 (recombinant human BLyS protein) (human) (UniProt Q9Y275)
Assay: Binding ELISA, human BLyS coated

Row | Binder | binding
1 | H48L47 (antibody, human IgG1, kappa, V domains shown) VH: EVQLVESGGGLVQPGGSMKLSCAASGFTFSDAWMDWVRQAPGKGLEWVAEIRNKANNHATYQAESVKGRFTISRDDSKNSVYLQMNSLKTEDTAVYYCTRAPFDLLVRRGYYIMDYWGQGTSVTVSS VL: DIQMTQTPSSLSASLGDRVTISCRTSQDISIYLNWYQQKPGKAPKLLIYYTSRLRSGVPSRFSGSGSGTDFSLTISSLQPEDFATYFCQQGSTLPWTFGGGTKLEIKR | binds
2 | H48L473 (antibody, human IgG1, kappa, V domains shown) VH: EVQLVESGGGLVQPGGSMKLSCAASGFTFSDAWMDWVRQAPGKGLEWVAEIRNKANNHATYQAESVKGRFTISRDDSKNSVYLQMNSLKTEDTAVYYCTRAPFDLLVRRGYYIMDYWGQGTSVTVSS VL: DIQMTQSPSSLSASVGDRVTITCRTSQDISIYLNWYQQKPGKAPKLLIYYTSRLRSGVPSRFSGSGSGTDFTFTISSLQPEDIATYFCQQGSTLPWTFGGGTKLEIKR | binds
3 | H482L473 (antibody, human IgG1, kappa, V domains shown) VH: EVQLVESGGGLVQPGGSLRLSCAASGFTFSDAWMDWVRQAPGKGLEWVGEIRNKANNHATYQAESVKGRFTISRDDSKNSVYLQMNSLKTEDTAVYYCTRAPFDLLVRRGYYIMDYWGQGTLVTVSS VL: DIQMTQSPSSLSASVGDRVTITCRTSQDISIYLNWYQQKPGKAPKLLIYYTSRLRSGVPSRFSGSGSGTDFTFTISSLQPEDIATYFCQQGSTLPWTFGGGTKLEIKR | binds
4 | H483L473 (antibody, human IgG1, kappa, V domains shown) VH: EVQLVESGGGLVKPGGSLRLSCAASGFTFSDAWMDWVRQAPGKGLEWVGEIRNKANNHATYQAESVKGRFTISRDDSKSTVYLQMNSLKTEDTAVYYCTRAPFDLLVRRGYYIMDYWGQGTLVTVSS VL: DIQMTQSPSSLSASVGDRVTITCRTSQDISIYLNWYQQKPGKAPKLLIYYTSRLRSGVPSRFSGSGSGTDFTFTISSLQPEDIATYFCQQGSTLPWTFGGGTKLEIKR | binds
5 | H484L473 (antibody, human IgG1, kappa, V domains shown) VH: EVQLVESGGGLVQPGGSLRLSCAASGFTFSDAWMDWVRQAPGKGLEWVAEIRNKANNHATYQAESVKGRFTISRDDSKSSVYLQMNSLRAEDTAVYYCTRAPFDLLVRRGYYIMDYWGQGTLVTVSS VL: DIQMTQSPSSLSASVGDRVTITCRTSQDISIYLNWYQQKPGKAPKLLIYYTSRLRSGVPSRFSGSGSGTDFTFTISSLQPEDIATYFCQQGSTLPWTFGGGTKLEIKR | binds
6 | H484L474 (antibody, human IgG1, kappa, V domains shown) VH: EVQLVESGGGLVQPGGSLRLSCAASGFTFSDAWMDWVRQAPGKGLEWVAEIRNKANNHATYQAESVKGRFTISRDDSKSSVYLQMNSLRAEDTAVYYCTRAPFDLLVRRGYYIMDYWGQGTLVTVSS VL: DIQMTQSPSSVSASVGDRVTITCRTSQDISIYLNWYQQKPGKAPKLLIYYTSRLRSGVPSRFSGSGSGTDFTLTISSLQPEDFATYFCQQGSTLPWTFGGGTKLEIKR | binds
7 | H482L47 (antibody, human IgG1, kappa, V domains shown) VH: EVQLVESGGGLVQPGGSLRLSCAASGFTFSDAWMDWVRQAPGKGLEWVGEIRNKANNHATYQAESVKGRFTISRDDSKNSVYLQMNSLKTEDTAVYYCTRAPFDLLVRRGYYIMDYWGQGTLVTVSS VL: DIQMTQTPSSLSASLGDRVTISCRTSQDISIYLNWYQQKPGKAPKLLIYYTSRLRSGVPSRFSGSGSGTDFSLTISSLQPEDFATYFCQQGSTLPWTFGGGTKLEIKR | binds
8 | H483L47 (antibody, human IgG1, kappa, V domains shown) VH: EVQLVESGGGLVKPGGSLRLSCAASGFTFSDAWMDWVRQAPGKGLEWVGEIRNKANNHATYQAESVKGRFTISRDDSKSTVYLQMNSLKTEDTAVYYCTRAPFDLLVRRGYYIMDYWGQGTLVTVSS VL: DIQMTQTPSSLSASLGDRVTISCRTSQDISIYLNWYQQKPGKAPKLLIYYTSRLRSGVPSRFSGSGSGTDFSLTISSLQPEDFATYFCQQGSTLPWTFGGGTKLEIKR | binds
9 | H484L47 (antibody, human IgG1, kappa, V domains shown) VH: EVQLVESGGGLVQPGGSLRLSCAASGFTFSDAWMDWVRQAPGKGLEWVAEIRNKANNHATYQAESVKGRFTISRDDSKSSVYLQMNSLRAEDTAVYYCTRAPFDLLVRRGYYIMDYWGQGTLVTVSS VL: DIQMTQTPSSLSASLGDRVTISCRTSQDISIYLNWYQQKPGKAPKLLIYYTSRLRSGVPSRFSGSGSGTDFSLTISSLQPEDFATYFCQQGSTLPWTFGGGTKLEIKR | binds
10 | H482L472 (antibody, human IgG1, kappa, V domains shown) VH: EVQLVESGGGLVQPGGSLRLSCAASGFTFSDAWMDWVRQAPGKGLEWVGEIRNKANNHATYQAESVKGRFTISRDDSKNSVYLQMNSLKTEDTAVYYCTRAPFDLLVRRGYYIMDYWGQGTLVTVSS VL: DIQMTQSPSSLSASVGDRVTITCRTSQDISIYLNWYQQKPGKAPKLLIYYTSRLRSGVPSRFSGSGSGTDFTLTISSLQPEDFATYFCQQGSTLPWTFGGGTKLEIKR | binds
